Results on three sequences are retold here after publication PMC5686142.

For data set [1], the target named is T1, ORF6 (Enc34 SSB, DUF2815) (Enterobacter cancerogenus bacteriophage Enc34) (UniProt H6WYG2).
T1 sequence (looked up): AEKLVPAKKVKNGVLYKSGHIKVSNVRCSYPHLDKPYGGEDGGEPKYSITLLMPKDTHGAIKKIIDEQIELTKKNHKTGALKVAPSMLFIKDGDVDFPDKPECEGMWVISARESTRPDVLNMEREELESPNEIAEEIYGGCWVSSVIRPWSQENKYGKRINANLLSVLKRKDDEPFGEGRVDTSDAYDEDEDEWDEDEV
The data set can be described thus: EMSA. Conditions: DNA:protein 1:156 to 1:2500, EMSA: 5 uL of 140 nM DNA + 5 uL protein (two-fold dilutions from 350 uM stock), room temperature 20 min, 1% agarose, 1x TAE, recombinant protein, residues 2-200, probe letters rebuilt from the primers and the genome. Background: In EMSA bound probe runs differently from free probe, usually more slowly.

For data set [2], the target named is T2, ORF6ΔC del179-199 (Enterobacter cancerogenus bacteriophage Enc34) (UniProt H6WYG2).
T2 sequence (looked up): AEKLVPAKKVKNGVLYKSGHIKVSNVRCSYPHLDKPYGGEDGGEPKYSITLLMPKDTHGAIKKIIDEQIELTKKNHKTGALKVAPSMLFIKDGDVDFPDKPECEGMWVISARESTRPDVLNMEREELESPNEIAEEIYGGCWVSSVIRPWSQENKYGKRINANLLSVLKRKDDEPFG
The data set can be described thus: X-ray crystallography. Conditions: 1.56 Å, protein:DNA 1:2, 0.1 M HEPES pH 7.0, 30% Jeffamine ED-2001; recombinant protein; residues 2-179; single-stranded DNA.

For part of these data: A negative result means that nothing was seen under these conditions. Where a protein sequence is shown, tags need not be part of it. For part of these data: For at least one entry, the source does not settle the construct or the ends of the probe.

For the sequence “CTCACAAGGTATCTTAGAAACTATCGCGGCTAACCAGACTCGCATCATCACTCTGCTGGAAGGTCTGCAACTGAACGCCCCGGCATCTTCTGACGCTGGCGAAACCGCCACTACCAAAACCACCGCTAAAAAGAACACCAAGGCTAAAGCGGAAGAAAAGGTGAAGCCGACTCATACCAAAGATGAAGTCGTTGCAGCGGTAGTTGCGGTTAAAGACGCTTTCGGCGCTCCGGCAGCTAAAGCCATCACCGGACAATTCGGTCTTGCTAAAATCGCAGAAGCGAAAGAAGACCAGTTCGACGCTATCTTCGACGCATGTCAGGAAAAACTGGCAGAAGCGGATAACGACGCAGGCGAAGAAGAAGAAGTTTAATCGCCTAAACGGTATTGCGGCTCCCTCCGGGGGGCCGTTTTTCTCAGAGGTAGCTATGAAAAAATTTCCTAAATTCAGCGTTATGACGGCGGGCGGAATGATCCCTGTAGTCACTTTTTCTGAATTCAGCCGTAACATCGGCGGTCTTGAGGTTCTTTTCAGAGTTACTTCGCCACTCAGCCCAAGCGTTGGAGCGTTAGTGTTAACCCACGTCGAAACAACGCGGCTAGTCGGTAAGGTGGAGTTTCTAGACATCGCGAAGACACGCGATAGCCTATTCGTAAATAATTATGAAAAGGCCGGGAATAGAGTTTTGAACCGAATATTAAGGGACGTTGGAGATGATAGATTCGTCAAAGCCGTCAAAAGGTACTCGTAACTTAAGCAC (double strand) [~750 bp dsDNA fragment]”, the binding result in data set [1] is reported as “no binding”.

Consider “CTCACAAGGTATCTTAGAAACTATCGCGGCTAACCAGACTCGCATCATCACTCTGCTGGAAGGTCTGCAACTGAACGCCCCGGCATCTTCTGACGCTGGCGAAACCGCCACTACCAAAACCACCGCTAAAAAGAACACCAAGGCTAAAGCGGAAGAAAAGGTGAAGCCGACTCATACCAAAGATGAAGTCGTTGCAGCGGTAGTTGCGGTTAAAGACGCTTTCGGCGCTCCGGCAGCTAAAGCCATCACCGGACAATTCGGTCTTGCTAAAATCGCAGAAGCGAAAGAAGACCAGTTCGACGCTATCTTCGACGCATGTCAGGAAAAACTGGCAGAAGCGGATAACGACGCAGGCGAAGAAGAAGAAGTTTAATCGCCTAAACGGTATTGCGGCTCCCTCCGGGGGGCCGTTTTTCTCAGAGGTAGCTATGAAAAAATTTCCTAAATTCAGCGTTATGACGGCGGGCGGAATGATCCCTGTAGTCACTTTTTCTGAATTCAGCCGTAACATCGGCGGTCTTGAGGTTCTTTTCAGAGTTACTTCGCCACTCAGCCCAAGCGTTGGAGCGTTAGTGTTAACCCACGTCGAAACAACGCGGCTAGTCGGTAAGGTGGAGTTTCTAGACATCGCGAAGACACGCGATAGCCTATTCGTAAATAATTATGAAAAGGCCGGGAATAGAGTTTTGAACCGAATATTAAGGGACGTTGGAGATGATAGATTCGTCAAAGCCGTCAAAAGGTACTCGTAACTTAAGCAC [~750 nt ssDNA fragment]”, for which the binding result in data set [1] (single-stranded DNA) is listed as “binds”. “TTTTTTTTTTTTTTTTTTTTTTTTTTTTTTTTTTT [(dT)35]”: the binding result in data set [2] is “binds”.
